Test results taken from publication PMC2890305 (Chemical biology & drug design, 2010).

Biological target: T1, Aminopeptidase N (APN) (Rattus norvegicus, UniProt P15684)
T1 sequence (P15684 33-965 limits assumed): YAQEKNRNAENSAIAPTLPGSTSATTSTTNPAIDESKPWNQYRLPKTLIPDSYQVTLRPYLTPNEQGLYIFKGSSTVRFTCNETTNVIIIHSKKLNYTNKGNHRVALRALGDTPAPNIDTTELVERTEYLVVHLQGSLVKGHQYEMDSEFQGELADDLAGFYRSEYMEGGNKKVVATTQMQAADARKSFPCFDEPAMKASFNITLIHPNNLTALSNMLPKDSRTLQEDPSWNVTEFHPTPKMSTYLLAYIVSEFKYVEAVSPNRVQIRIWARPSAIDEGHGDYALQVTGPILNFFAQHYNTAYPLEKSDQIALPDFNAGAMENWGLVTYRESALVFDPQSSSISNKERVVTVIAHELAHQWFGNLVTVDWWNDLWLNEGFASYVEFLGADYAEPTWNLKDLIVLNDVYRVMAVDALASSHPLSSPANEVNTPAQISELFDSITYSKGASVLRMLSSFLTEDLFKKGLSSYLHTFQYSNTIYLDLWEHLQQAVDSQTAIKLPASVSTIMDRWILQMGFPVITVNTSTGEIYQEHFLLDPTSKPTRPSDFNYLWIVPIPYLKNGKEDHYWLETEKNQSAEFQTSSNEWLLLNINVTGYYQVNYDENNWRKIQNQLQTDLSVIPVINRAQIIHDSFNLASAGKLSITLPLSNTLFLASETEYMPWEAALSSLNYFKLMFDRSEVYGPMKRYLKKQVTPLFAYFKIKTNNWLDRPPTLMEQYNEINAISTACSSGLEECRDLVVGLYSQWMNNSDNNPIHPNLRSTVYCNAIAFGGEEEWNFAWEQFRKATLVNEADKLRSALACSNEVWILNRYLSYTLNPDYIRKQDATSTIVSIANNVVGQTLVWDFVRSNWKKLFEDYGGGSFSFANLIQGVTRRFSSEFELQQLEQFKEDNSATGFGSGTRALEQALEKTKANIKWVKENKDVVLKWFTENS
Assay: Inhibition of APN aminopeptidase activity, increasing peptide concentrations
Type: biochemical

N=C(N)NCCC[C@@H]1NC(=O)CNC(=O)[C@H](CC(N)=O)NC(=O)[C@@H](N)CSSC[C@@H](C(=O)O)NC1=O [CNGRC]
IC50: ~300 µM
